# Source: patent US20250288599A1, “PHARMACEUTICAL COMPOSITIONS AND METHODS FOR TREATING OSTEOARTHRITIS” (INSIGNIA PHARMACEUTICALS, LLC, priority 2024, published 2025)
# How the values were obtained:
# [1] = test system: IL-1β release from human THP1 macrophages; experiment: Two-hit (LPS then ATP) inflammasome activation model, IL-1β release from THP1 macrophages; type: cell-based; conditions: THP-1, Dex phosphate alone, 1 picomolar to 10 micromolar
# From the text: The proinflammatory cytokine, IL-1β, is released from cells upon activation of the inflammasome, a multi-protein proinflammatory complex. A two-hit model of inflammasome activation in THP1 macrophages was developed that entails an overnight stimulation with LPS followed by a second proinflammatory stimulus, extracellular ATP, which drives inflammasome assembly and subsequent IL-1β release from the cells into the media.
# [2] = test system: Elastin (ELN) expression in normal human dermal fibroblasts (NHDF); experiment: ELN mRNA in NHDF activated with TGF-β1 or IL-1β, 24 h, qRT-PCR; type: cell-based; conditions: 100 mM Lac or 0.1 mM Dxp
# Experimental: (§1) To serve as a control, cells were also treated with 0.1 mM Dex-21-phosphate (Dxp or Dex). After 24 hours, total mRNA was isolated and delta-delta Cp relative expression was calculated versus untreated medium controls, normalized to the housekeeping gene, GAPDH. Statistical analysis was then conducted via t-test.
# [3] = test system: MMP3 expression in normal human dermal fibroblasts (NHDF); experiment: MMP3 mRNA in NHDF activated with IL-1β, 24 h, qRT-PCR; type: cell-based; conditions: IL-1β 0.1 ng/ml, 100 mM Lac or 0.1 mM Dxp, IL-1β alone 3.5±1.7
# Experimental: as §1
# [4] = test system: MMP12 expression in normal human dermal fibroblasts (NHDF); experiment: MMP12 mRNA in NHDF activated with IL-1β, 24 h, qRT-PCR; type: cell-based; conditions: IL-1β 0.1 ng/ml, 100 mM Lac or 0.1 mM Dxp, IL-1β alone 17.8±12.3
# Experimental: as §1
# [5] = test system: SOX9 expression in human osteoarthritic chondrocytes; experiment: SOX9 relative expression in high and low passage osteoarthritic chondrocytes, 7, 14 or 28 days; type: cell-based; conditions: low passage osteoarthritic chondrocytes; 7, 14, 28 days
# From the text: Media was exchanged bi-weekly. […] SOX9 is a transcription factor vital to the development and maintenance of cartilage and is required for chondrogenesis. SOX9 promotes chondrocyte survival and transcriptionally activates cartilage-specific genes. SOX9 is repressed in hypertrophic chondrocytes (i.e. terminally differentiated osteoblast-like cells).
# [6] = test system: Col2a1 expression in low passage osteoarthritic chondrocytes; experiment: Col2a1 relative expression in low passage osteoarthritic chondrocytes; type: cell-based, human; conditions: day 28
# [7] = test system: Col2a1 expression in human osteoarthritic chondrocytes; experiment: Col2a1 relative expression in human osteoarthritic chondrocytes (passage 5) cultured 27 days; type: cell-based; conditions: 50 micromolar Dec, 0.1 μM Dxp, 100 mM Lac
# Experimental: (§2) To evaluate the biological ramifications of the SOX9 to RUNX2 regulation mentioned above, delta-delta relative gene expression was assessed against medium controls, with normalization to GAPDH for both Col2a1 and Col1a1 in the samples tested with reference to Example 15. […] Moreover, treatment with 100 mM Lac increased collagen expression (49.88±4.31 and 1.63±0.20 for Col2a1 and Col1a1, respectively; FIGS. 51 and 52).
# [8] = test system: Col1a1 expression in human osteoarthritic chondrocytes; experiment: Col1a1 relative expression in human osteoarthritic chondrocytes (passage 5) cultured 27 days; type: cell-based; conditions: 50 micromolar Dec, 0.1 μM Dxp, 100 mM Lac
# Experimental: as §2
structure (smiles),measurement,setting,value
"C[C@@H]1C[C@H]2[C@@H]3CCC4=CC(=O)C=C[C@]4(C)[C@@]3(F)[C@@H](O)C[C@]2(C)[C@@]1(O)C(=O)COP(=O)(O)O [Dxp, dexamethasone phosphate, reference compound]",IC50,[1],0.046 µM
same,relative expression of ELN,"[2]; IL-1β 0.1 ng/ml, IL-1β alone 18±12, n=3",7.8+4
same,relative expression of ELN,"[2]; TGF-β1 10 ng/ml, TGF-β1 alone 110±35, n=3",78±14
same,relative expression of MMP3,[3],0.6±1.5
same,relative expression of MMP12,[4],1.7±0.6
same,ratio of SOX9/RUNX2,[5],reduced
same,relative expression of Col2a1,[6],reduction
same,Col2a1 delta-delta relative gene expression,[7],−25.99±13.34 fold
same,Col1a1 delta-delta relative gene expression,[8],−1.44±0.17 fold
